Measurements: paper PMC9597602, “Metal Complexes as Antifungals? From a Crowd-Sourced Compound Library to the First In Vivo Experiments” (JACS Au, 2022)
For some assays here: Which two values form the index is not stated here.

Columns and labels:
[1] = Therapeutic index against the best MIC measured; conditions: lowest TI obtained in either TI_CC50 or TI_HC10
human red blood cells = assay type: cell-based; conditions: Therapeutic Index with respect to haemolysis against the best MIC measured
Description: Human whole blood (Australian Red Cross) was washed three times with 3 vol of 0.9% NaCl and resuspended in a concentration of 0.5 × 10^8 cells/mL, determined by a manual cell count in a Neubauer hemocytometer. […] After incubation, the plates were centrifuged at 1000g for 10 min to pellet cells and debris; 25 μL of the supernatant was then transferred to reading plates (384-well, polystyrene plated (PS), Corning CLS3680), with hemolysis determined by measuring the supernatant absorbance at […] (OD405) using cells without inhibitors as negative control and cells with 1% Triton X-100 (Sigma T8787) as positive control. […] Melittin (Sigma M2272) was used as internal control on each plate.

c1ccc([PH]([Au][S]c2ccccn2)(c2ccccc2)c2ccccc2)cc1 [Au2]
Minimum TI [1]: 35 | TI_HC10 (human red blood cells): 8333
